Taken from: PubChem BioAssay AID504804 (Drosophila RNAi Screening Center, 2011)
In all, the deposit lists about 19,000 reagents; below is a random part of those with a known target gene and a result. Of all reagents, 47 (0.25%) are marked active. 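Signals are raw, not normalised; exact z-scores behind calls not deposited; actives needed confirmation, so some wells reaching 2 SD are inactive.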 Names joined by + are all predicted targets of the reagent.

- Assay: 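Fly genes whose loss lessens doxorubicin-driven cell death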 (primary screen)
- Cells: Drosophila Kc cells
- Reagent: long dsRNA against Drosophila genes, 0.5 µg dsRNA per well
- Duration: 96 h (48 h knock-down, then 48 h drug)
- Conditions: doxorubicin 5 µg/ml for 48 h, added 48 h after dsRNA
- Detection: 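Luminescent ATP counts per replicate, not normalised, reflecting viable cells after 48 h dsRNA knock-down followed by 48 h of 5 µg/ml doxorubicin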
- Direction: raw ATP luminescence: higher = more viable cells, protection from doxorubicin
- Active means: 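Active when both duplicate wells lie at least 2 SD above the plate mean and protection is confirmed by rescreening and independent dsRNAs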

| target | DRSC id | raw ATP luminescence, replicate 1 | raw ATP luminescence, replicate 2 | outcome |
| --- | --- | --- | --- | --- |
| veil | DRSC06892 | 55753 | 77523 | inactive |
| B4 | DRSC01868 | 1.10e5 | 75983 | inactive |
| B4 | DRSC03175 | 66130 | 68103 | inactive |
| CheB74a | DRSC09503 | 67907 | 92477 | inactive |
| Zcchc7 | DRSC11099 | 29857 | 22210 | inactive |
| CG12795 | DRSC00354 | 28480 | 34230 | inactive |
| CG16879 (retired record) | DRSC01918 | 73373 | 1.12e5 | inactive |
| Idh3g | DRSC15699 | 53550 | 45120 | inactive |
| CG15545 | DRSC15083 | 52630 | 32960 | inactive |
| CG32812 | DRSC18478 | 62260 | 58900 | inactive |
| CG8086 | DRSC03078 | 1.07e5 | 85977 | inactive |
| CG8086 | DRSC03079 | 46223 | 75673 | inactive |
| Ac13E | DRSC19325 | 2.78e5 | 2.17e5 | inactive |
| ergic53 | DRSC11389 | 88590 | 84297 | inactive |
| sun | DRSC20140 | 2.50e5 | 2.68e5 | inactive |
| Fmo-2 | DRSC04983 | 59013 | 55570 | inactive |
| Gabat | DRSC10846 | 71483 | 54017 | inactive |
| CG13295 | DRSC09969 | 86457 | 95670 | inactive |
| rec | DRSC14998 | 64290 | 62360 | inactive |
| rec | DRSC15656 | 77130 | 61900 | inactive |
| Sf3b5 | DRSC14460 | 47983 | 47140 | inactive |
| Syt7 | DRSC17130 | 81280 | 59080 | inactive |
| Syt7 | DRSC17159 | 72000 | 47140 | inactive |
| sut1 | DRSC07700 | 59057 | 47210 | inactive |
| CG10126 | DRSC14191 | 55660 | 27270 | inactive |
| CG15233 | DRSC04967 | 60030 | 56753 | inactive |
| CG5043 | DRSC02805 | 70430 | 69107 | inactive |
| Cyp310a1 | DRSC03301 | 67803 | 54427 | inactive |
| CG32829 | DRSC00961 | 3.45e5 | 3.21e5 | inactive |
| CG16957 | DRSC02545 | 76130 | 74063 | inactive |
| tap | DRSC11402 | 61107 | 54213 | inactive |
| Cpes | DRSC04475 | 74087 | 56503 | inactive |
| Nsun5 | DRSC15835 | 56360 | 60567 | inactive |
| phr6-4 | DRSC03589 | 72083 | 69360 | inactive |
| CG16972 | DRSC02550 | 1.13e5 | 87620 | inactive |
| Dh44-R1 | DRSC07172 | 47110 | 39223 | inactive |
| shakB | DRSC20492 | 4.17e5 | 3.94e5 | inactive |
| shakB | DRSC20585 | 3.19e5 | 3.47e5 | inactive |
| Octbeta2R | DRSC15350 | 51747 | 58907 | inactive |
| Octbeta2R | DRSC16165 | 54907 | 58560 | inactive |
| Atg18b | DRSC03108 | 66683 | 72557 | inactive |
| CG31231 | DRSC13308 | 2.34e5 | 2.07e5 | inactive |
| NSD | DRSC15691 | 52350 | 36050 | inactive |
| CG13047 | DRSC09928 | 45157 | 27503 | inactive |
| Ran | DRSC20364 | 3.95e5 | 4.09e5 | inactive |
| Mst84Dd | DRSC12600 | 57400 | 57200 | inactive |
| Nt5a | DRSC08561 | 69887 | 73837 | inactive |
| Dci | DRSC08360 | 1.67e5 | 2.15e5 | inactive |
| Sema5c | DRSC11279 | 95533 | 73483 | inactive |
| CG14194 | DRSC19549 | 3.40e5 | 3.34e5 | inactive |
| IFT57 | DRSC00720 | 25600 | 28430 | inactive |
| Lk | DRSC10022 | 55193 | 46770 | inactive |
| CG8839 | DRSC07285 | 45517 | 39490 | inactive |
| CG9737 | DRSC16550 | 43740 | 53010 | inactive |
| PIG-H | DRSC14856 | 73540 | 53147 | inactive |
| snRNA:U1:95Cc | DRSC13640 | 46040 | 48797 | inactive |
| Tsp39D | DRSC03099 | 51113 | 55077 | inactive |
| CG13081 | DRSC02185 | 51337 | 48080 | inactive |
| Hsp70Bb + Hsp70Bbb | DRSC15885 | 64797 | 55577 | inactive |
| CG33322 | DRSC03204 | 71507 | 61143 | inactive |
| CG18659 | DRSC06784 | 55707 | 81293 | inactive |
| CG5399 | DRSC15791 | 63690 | 57450 | inactive |
| CG7407 | DRSC11824 | 24700 | 26093 | inactive |
| mRpL43 | DRSC04508 | 53357 | 57723 | inactive |
| CG4950 | DRSC10463 | 70253 | 68187 | inactive |
| Btnd | DRSC18316 | 40380 | 36440 | inactive |
| Mtpbeta | DRSC04663 | 60453 | 51687 | inactive |

The list goes on (15 carried over from the part before).
| target | DRSC id | raw ATP luminescence, replicate 1 | raw ATP luminescence, replicate 2 | outcome |
| --- | --- | --- | --- | --- |
| CG8839 | DRSC07285 | 45517 | 39490 | inactive |
| CG9737 | DRSC16550 | 43740 | 53010 | inactive |
| PIG-H | DRSC14856 | 73540 | 53147 | inactive |
| snRNA:U1:95Cc | DRSC13640 | 46040 | 48797 | inactive |
| Tsp39D | DRSC03099 | 51113 | 55077 | inactive |
| CG13081 | DRSC02185 | 51337 | 48080 | inactive |
| Hsp70Bb + Hsp70Bbb | DRSC15885 | 64797 | 55577 | inactive |
| CG33322 | DRSC03204 | 71507 | 61143 | inactive |
| CG18659 | DRSC06784 | 55707 | 81293 | inactive |
| CG5399 | DRSC15791 | 63690 | 57450 | inactive |
| CG7407 | DRSC11824 | 24700 | 26093 | inactive |
| mRpL43 | DRSC04508 | 53357 | 57723 | inactive |
| CG4950 | DRSC10463 | 70253 | 68187 | inactive |
| Btnd | DRSC18316 | 40380 | 36440 | inactive |
| Mtpbeta | DRSC04663 | 60453 | 51687 | inactive |
| PolQ | DRSC17006 | 50680 | 36570 | inactive |
| Sdc | DRSC04654 | 63480 | 63610 | inactive |
| usp | DRSC18847 | 51300 | 37950 | inactive |
| Lsm11 | DRSC06238 | 45633 | 78583 | inactive |
| ATPsynepsilonL | DRSC14548 | 47047 | 46703 | inactive |
| CG13793 | DRSC02297 | 72003 | 85513 | inactive |
| Smvt | DRSC15426 | 50940 | 43660 | inactive |
| Cyp6a17 | DRSC07378 | 72223 | 57700 | inactive |
| Dhfr | DRSC16646 | 1.13e5 | 1.15e5 | inactive |
| CG10395 | DRSC04840 | 79403 | 78617 | inactive |
| CG11961 | DRSC06099 | 60143 | 55037 | inactive |
| Eig71Ec | DRSC11150 | 54743 | 42287 | inactive |
| vsg | DRSC10219 | 82423 | 71767 | inactive |
| vri | DRSC03633 | 13953 | 16567 | inactive |
| Pits | DRSC19385 | 3.43e5 | 2.98e5 | inactive |
| Pits | DRSC19812 | 3.41e5 | 2.98e5 | inactive |
| CG31848 | DRSC01309 | 3.23e5 | 3.10e5 | inactive |
| CG13601 | DRSC14604 | 48697 | 63923 | inactive |
| ppk10 | DRSC01123 | 3.28e5 | 3.33e5 | inactive |
| CG10949 | DRSC02112 | 93287 | 86957 | inactive |
| CG12446 | DRSC20618 | 3.15e5 | 3.14e5 | inactive |
| cbc | DRSC06957 | 81167 | 63627 | inactive |
| CG17036 | DRSC02564 | 62177 | 79440 | inactive |
| Prosalpha5 | DRSC07514 | 53447 | 40787 | inactive |
| CG7568 | DRSC16259 | 51200 | 49940 | inactive |
| Dp1 | DRSC07403 | 64123 | 72673 | inactive |
| Spn28Dc | DRSC03029 | 42770 | 65567 | inactive |
| if | DRSC20341 | 3.12e5 | 2.35e5 | inactive |
| CG34428 | DRSC10119 | 93423 | 1.52e5 | inactive |
| CG8176 | DRSC16394 | 64380 | 62293 | inactive |
| Gr93c | DRSC14587 | 59970 | 68660 | inactive |
| Picot | DRSC07508 | 45697 | 1.11e5 | inactive |
| beta3GalTII | DRSC07253 | 46147 | 89377 | inactive |
| Rbf2 | DRSC16816 | 77650 | 77360 | inactive |
| CG10979 | DRSC12153 | 69917 | 68723 | inactive |
| lost | DRSC12002 | 69913 | 70823 | inactive |
| lost | DRSC12234 | 17447 | 21250 | inactive |
| Tsp29Fa | DRSC03232 | 36680 | 72137 | inactive |
| CG5355 | DRSC02844 | 88410 | 70770 | inactive |
| CG30413 | DRSC04001 | 88343 | 89380 | inactive |
